Reference: PubChem BioAssay AID493014 (National Center for Advancing Translational Sciences (NCATS), 2011)
This is one part of the list. The main result of the screen is listed elsewhere. These columns were measured beside it and carry no call. Compounds called inactive in the main read-out are mostly missing here. Words in brackets tell the shape of the fitted curve; partial curves, single points and poor fits give uncertain potencies.

Assay: qHTS Assay to Find Inhibitors of Chronic Active B-Cell Receptor Signaling
Conditions: ABC-DLBCL IkBa-CBG/CBR reporter, luminescence ratio (green luciferase fused to IkBa over red control in TMD8 lymphoma cells), 4 h
Summary of the method: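 Doxycycline induced both beetle luciferases in TMD8 lymphoma cells; IKK-driven degradation limits the IkappaBalpha-fused green signal, while red luminescence normalises for cell number and nonspecific effects. Compounds tested up to 46 uM, 4 hrs.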

[1] = measured here: CBR red luminescence, cell number
[2] = measured here: IkBa-CBG green luminescence

Row | SMILES | AC50 [1] | AC50 [2]
1 | COc1ccccc1C(=O)C1CCCN(C(=O)Nc2ccccc2F)C1 (stereo unspecified) | 5.01 µM [falling, partial curve, poor fit] | 
2 | Cc1ccc(/C=C/C(=O)Nc2nccs2)o1 | 7.31 µM [falling, partial curve, poor fit] | 
3 | CCn1c(SCC(=O)n2c(C)c(C)c3ccccc32)nnc1-c1ccco1 | 32.6 µM [falling, single point] | 
4 | S=c1nc(-c2cc(Cl)ccc2Cl)[nH][nH]1 | 11.2 µM [falling, partial curve, poor fit] | 
5 | NC(=O)CC(NC(=O)c1ccc(Br)cc1)c1ccc(N2CCN(c3ccc(F)cc3)CC2)c([N+](=O)[O-])c1 (stereo unspecified) | 10 µM [falling, single point] | 
6 | COc1ccc2nc(-n3c(O)c(C4=c5ccccc5=NC4=O)[nH]c3=S)sc2c1 | 3.66 µM [falling, partial curve] | 
7 | COc1cc(N=Nc2cccc(S(N)(=O)=O)c2)c2ccccc2c1N | 0.251 µM [rising, full curve, poor fit] | 
8 | Cc1nc2ccc(-c3nc4ccc(N)cc4[nH]3)cc2[nH]1 | 15.8 µM [falling, partial curve, poor fit] | 
9 | c1csc(C2=Nn3c(nnc3-c3ccncc3)SC2)c1 | 0.562 µM [falling, full curve, poor fit] | 
10 | O=C(CNC(=O)c1ccccc1O)N/N=C/c1cc(Br)ccc1OC(=O)/C=C/c1ccco1 | 0.562 µM [falling, partial curve, poor fit] | 
11 | COc1cc(-c2nn3c(COc4ccccc4)nnc3s2)cc(OC)c1OC | 1.41 µM [rising, full curve, poor fit] | 
12 | CCCCn1c(-c2ccc(F)c(F)c2)nc2cc3[nH]c(=O)c(C(C)C)nc3cc21 | 11.2 µM [falling, partial curve] | 
13 | COc1ccc(-c2nnc(Nc3ccc(OC)c(C(=O)N4CCCCC4)c3)c3ccccc23)cc1 | 29.1 µM [falling, single point] | 
14 | CCCCn1c(N)c(N(CCOC)C(=O)CN2c3ccccc3CC2C)c(=O)[nH]c1=O (stereo unspecified) | 10 µM [rising, partial curve, poor fit] | 
15 | CCN(CC)c1ccc(S(=O)(=O)N(CC)CC)cc1NC(=O)C1CCCC1 | 35.5 µM [falling, single point] | 
16 | NC1=NC(=O)/C(=C/c2ccc(Cl)cc2Cl)S1 | 10 µM [falling, partial curve, poor fit] | 17.8 µM [rising, partial curve, poor fit]
17 | O=C(NCc1ccco1)C(Cc1ccccc1)N1C(=O)C2C3C=CC(C3)C2C1=O (stereo unspecified) | 0.731 µM [rising, partial curve, poor fit] | 
18 | COc1ccccc1N(CC(=O)N1CCCCC1)S(=O)(=O)c1ccccc1 | 6.51 µM [rising, single point] | 
19 | Cc1ccc(C)c(-c2nnc(NC(=O)c3ccco3)o2)c1 | 14.6 µM [falling, partial curve, poor fit] | 
20 | O=C(Cn1nc(-c2cccc(Cl)c2)ccc1=O)Nc1ccc(C(=O)NC2CC2)cc1 | 35.5 µM [rising, single point] | 

Row | SMILES | AC50 [1] | AC50 [2]
21 | CC1(C)NC(=O)N(CC(O)CN(c2ccccc2)S(=O)(=O)c2ccccc2[N+](=O)[O-])C1=O (stereo unspecified) | 6.31 µM [falling, single point] | 
22 | O=C(CCl)Nc1cccc(Oc2ccccc2)c1 | 11.2 µM [falling, partial curve, poor fit] | 
23 | O=C(c1ccco1)N1CCN(C(=O)C2CCN(S(=O)(=O)c3cccs3)CC2)CC1 | 0.0891 µM [falling, full curve, poor fit] | 
24 | COc1ccc(CN(Cc2ccco2)S(=O)(=O)c2ccc(S(=O)(=O)N3CCCC3)cc2)cc1 | 9.2 µM [rising, single point] | 
25 | COc1cc2c(cc1OC)-c1cc(Nc3ccccc3)nc(=O)n1CC2 | 15.8 µM [rising, partial curve, poor fit] | 7.94 µM [falling, partial curve]
26 | O=C(N/N=C/c1cc(Br)cs1)C(O)c1ccccc1 (stereo unspecified) | 35.5 µM [falling, single point] | 
27 | O=C(O)C1CCCCC1C(=O)Nc1ccccc1F (stereo unspecified) | 10.3 µM [rising, partial curve, poor fit] | 
28 | Cc1ccc(S(=O)(=O)/N=C(/NNC(=O)c2cccc(Cl)c2)c2ccccc2)cc1 | 7.08 µM [falling, partial curve, poor fit] | 
29 | COc1ccc(C(=O)NCc2ccc(Cl)cc2)cc1S(=O)(=O)N1CCCC1 | 29.1 µM [falling, single point] | 
30 | CCN(CC)CCCNC(=O)c1cc(Nc2ccc(OC)cc2OC)nc2ccccc12 | 20 µM [falling, partial curve, poor fit] | 
31 | CC(=O)c1ccc(NC(=S)NCc2ccco2)cc1 | 2.82 µM [rising, partial curve, poor fit] | 
32 | C=C1/C=C(\C)[C@](C)(O)C[C@H](O)CC(=O)[C@H](O)[C@@H](O)[C@H](C)C[C@H](C)OC(=O)/C(C)=C/CC/C=C/[C@@H]2O[C@H]2C[C@H](C)C1 | 23.1 µM [falling, partial curve, poor fit] | 
33 | CCOc1ccc(NS(=O)(=O)c2cnc(Cl)c(Cl)c2)cc1 | 29.1 µM [rising, single point] | 29.1 µM [falling, single point]
34 | O=C(Cn1cnc2ccccc2c1=O)NCc1ccc2c(c1)OCO2 | 29.1 µM [falling, single point] | 
35 | CNS(=O)(=O)c1cccc(C(=O)OCC(=O)NC(C)CCc2ccccc2)c1 (stereo unspecified) | 3.55 µM [rising, partial curve, poor fit] | 
36 | CCN(CC)S(=O)(=O)c1cc(NC(=S)NC(=O)C2CCCC2)ccc1C | 29.1 µM [falling, single point] | 
37 | COc1cc(OC)cc(-c2cc3nc(C)c(CCC(=O)O)c(=O)n3[nH]2)c1 | 29.1 µM [falling, single point] | 
38 | C=CCn1c(-c2cccc3ccccc23)n[nH]c1=S |  | 29.1 µM [falling, single point]
39 | CCCNC(=O)c1cc(-c2ccc3c(c2)OCO3)on1 | 7.94 µM [falling, partial curve] | 
40 | COc1ccc(OC)c(-n2c(-c3cc(-c4ccco4)[nH]n3)n[nH]c2=S)c1 | 20 µM [rising, partial curve] | 

In the list so far, three contain bromine.
Row | SMILES | AC50 [1] | AC50 [2]
5 | NC(=O)CC(NC(=O)c1ccc(Br)cc1)c1ccc(N2CCN(c3ccc(F)cc3)CC2)c([N+](=O)[O-])c1 (stereo unspecified) | 10 µM [falling, single point] | 
10 | O=C(CNC(=O)c1ccccc1O)N/N=C/c1cc(Br)ccc1OC(=O)/C=C/c1ccco1 | 0.562 µM [falling, partial curve, poor fit] | 
26 | O=C(N/N=C/c1cc(Br)cs1)C(O)c1ccccc1 (stereo unspecified) | 35.5 µM [falling, single point] | 

More entries follow:

Row | SMILES | AC50 [1] | AC50 [2]
41 | CCC(=O)NNC(=O)Cc1c(C)n(C(=O)c2ccc(Cl)cc2)c2ccc(OC)cc12 | 8.91 µM [falling, partial curve] | 
42 | O=S(=O)(Nc1ccc(N2CCCCC2)cc1)c1cccs1 | 3.16 µM [falling, single point] | 
43 | O=C(COc1ccccc1)Nc1nc2ccccc2[nH]1 | 5.17 µM [falling, full curve] | 
44 | COc1ccc(-c2nc(-c3cccs3)c(-c3cccs3)[nH]2)cc1O | 20.6 µM [falling, partial curve, poor fit] | 
45 | N#Cc1cccc(NC(=O)COC(=O)c2ccccc2Sc2ccccc2C#N)c1 | 2.06 µM [rising, partial curve, poor fit] | 
46 | COc1cc(C(=O)Nc2cccc(-c3nc4ccccc4o3)c2C)cc(OC)c1OC | 3.98 µM [rising, single point] | 
47 | O=c1c2c(nc3cc(-c4ccc(F)cc4)[nH]n13)CCC2 | 4.61 µM [falling, full curve] | 
48 | Nc1nc(CSc2n[nH]c(-c3ccccc3)n2)nc(Nc2ccccc2)n1 | 6.51 µM [rising, single point] | 
49 | O=[N+]([O-])c1cc(/C=N/N/C(=N/c2ccccn2)c2ccccn2)ccc1O | 17.8 µM [falling, single point] | 
50 | COc1ccccc1OCc1nc2ccccc2s1 | 7.31 µM [falling, partial curve] | 
51 | CCCCCC1CC(CC(=O)O)C(=O)O1 (stereo unspecified) | 29.1 µM [rising, single point] | 
52 | O=C(Nc1ccccc1[N+](=O)[O-])C1COc2ccccc2O1 (stereo unspecified) | 5.01 µM [rising, partial curve, poor fit] | 
53 | Cc1cc(=O)oc2ccc(OC(=O)c3cccc(S(=O)(=O)N4CCOCC4)c3)cc12 | 18.4 µM [falling, single point] | 
54 | CN(Cc1ccc(-n2cccn2)cc1)C(=O)c1cnn2c1NC(c1ccco1)CC2C(F)(F)F (stereo unspecified) | 23.1 µM [falling, single point] | 
55 | CCc1ccc2oc(-c3ccc(NC(C)=O)cc3)nc2c1 | 14.1 µM [falling, single point] | 
56 | Cc1[nH]nc(Nc2ccc(Br)cc2)c1[N+](=O)[O-] | 0.1 µM [rising, full curve, poor fit] | 
57 | CC(=O)Nc1sc2c(c1-c1nc3ccccc3s1)CCN(C(C)C)C2 | 35.5 µM [rising, single point] | 
58 | CCC(=O)N(CCc1ccccc1C)Cc1cc2cc3c(cc2[nH]c1=O)OCO3 | 29.1 µM [falling, single point] | 20.6 µM [rising, partial curve, poor fit]
59 | COc1ccccc1/C=C1/SC(=O)N(CCC(=O)Nc2ccc(S(=O)(=O)Nc3nccs3)cc2)C1=O | 16.4 µM [falling, partial curve] | 32.6 µM [falling, partial curve, poor fit]
60 | O=C(CCN1Cc2ccccc2C1)c1ccc2c(c1)OCCO2 | 22.4 µM [falling, single point] | 35.5 µM [rising, partial curve, poor fit]
